# Data reported in PubChem BioAssay (NCATS).
# Inconclusive results, whose numbers are uncertain, are shown with a selection of clear calls. Where the call is inconclusive, the potency comes from a doubtful curve fit. Active and inactive are the calls of the source. Calls follow the shape of the dose curve; as a rule, active = well fitted cell-killing curve with a large enough effect; inconclusive = small, poorly fitted or top-dose-only effect, or effect the other way; inactive = no such curve, though single readings can be large or run the other way.
# Assays:
# [1] = Quantitative High-Throughput drug screen in 47 multiple myeloma cell lines against the NCATS MIPE library collection: Karpas25_ECACC cell viability assay (AID 1918968; also: nearly all actives have a fitted effect of over 35% in size); conditions: Karpas25 myeloma viability, CellTiter-Glo ATP, 48 h; viability (% of control): at 45.8 µM (top of the series)
# Procedure, shortened: (§1)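 Relative luminescence from CellTiter-Glo served as the viability signal, referenced to DMSO-treated (100%) and cell-free medium (0%) controls. Treatment lasted 48 hours at 37C with 500 cells per well.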
# [2] = Quantitative High-Throughput drug screen in 47 multiple myeloma cell lines against the NCATS MIPE library collection: KMS12BM_JCRB cell viability assay (AID 1918971); also: nearly all actives have a fitted effect of over 35% in size
# Procedure, shortened: (§2)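 We plated 500 myeloma cells per well, pinned in MIPE 4.0 compounds, and incubated for 48 hours at 37C. ATP was then quantified with CellTiter-Glo, with DMSO and media-only wells defining 100% and 0%.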
# [3] = Quantitative High-Throughput drug screen in 47 multiple myeloma cell lines against the NCATS MIPE library collection: KMS12PE_JCRB cell viability assay (AID 1918972); conditions: KMS12PE myeloma viability, CellTiter-Glo ATP, 48 h; viability: at 45.8 µM (top of the series); also: nearly all actives have a fitted effect of over 30% in size
# Procedure, shortened: as §1
# [4] = Quantitative High-Throughput drug screen in 47 multiple myeloma cell lines against the NCATS MIPE library collection: KMS20_JCRB cell viability assay (AID 1918973); conditions: CellTiter-Glo ATP, 48 h; viability (% of DMSO): at 45.8 µM (top of the series); also: nearly all actives have a fitted effect of over 45% in size
# Procedure, shortened: as §1
# [5] = Quantitative High-Throughput drug screen in 47 multiple myeloma cell lines against the NCATS MIPE library collection: KMS26_JCRB cell viability assay (AID 1918975); conditions: KMS26 myeloma cells viability, CellTiter-Glo ATP, 48 h; viability (% of DMSO): at 45.8 µM (top of the series); also: nearly all actives have a fitted effect of over 45% in size
# Procedure, shortened: as §2
# [6] = Quantitative High-Throughput drug screen in 47 multiple myeloma cell lines against the NCATS MIPE library collection: MMM1_PLB cell viability assay (AID 1918976); also: nearly all actives have a fitted effect of over 35% in size
# Procedure, shortened: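 Readout: median RLU from CellTiter-Glo after 5 min at room temperature. Preceding step was 48 h drug treatment of 500 cells/well at 37 °C, 5% CO2, with DMSO-only and media-only control wells.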
# [7] = Quantitative High-Throughput drug screen in 47 multiple myeloma cell lines against the NCATS MIPE library collection: KMS21BM_JCRB cell viability assay (AID 1918974); conditions: ATP luminescence, 48 h; viability: at 45.8 µM (top of the series) unless noted
# Procedure, shortened: as §1
# [8] = Quantitative High-Throughput drug screen in 47 multiple myeloma cell lines against the NCATS MIPE library collection: KMS27_JCRB cell viability assay (AID 1918970); conditions: KMS27 myeloma cells, CellTiter-Glo ATP viability, 48 h; viability (% of DMSO): at 45.8 µM (top of the series) unless noted; also: nearly all actives have a fitted effect of over 30% in size
# Procedure, shortened: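 Viability inhibition screen, 48 h compound exposure, luminescent ATP read-out.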
# [9] = Quantitative High-Throughput drug screen in 47 multiple myeloma cell lines against the NCATS MIPE library collection: H1112_PLB cell viability assay (AID 1918967; also: nearly all actives have a fitted effect of over 30% in size); conditions: H1112 myeloma cells viability, ATP luminescence, 48 h; viability: at 45.8 µM (top of the series)
# Procedure, shortened: as §1
# Potency is read from the fitted curve at half-maximal effect.
smiles,measurement,setting,value
COc1ccc(-n2nc(C(N)=O)c3c2C(=O)N(c2ccc(N4CCCCC4=O)cc2)CC3)cc1,Potency,[1],inactive
same,Potency,[2],inactive
same,Potency,[3],inactive
same,Potency,[4],"inconclusive: 0.0012 µM [cytotoxic, full curve, poor fit]"
same,Potency,[5],"inconclusive: 0.0021 µM [cytotoxic, full curve, poor fit]"
same,Potency,[6],"inconclusive: 0.0023 µM [rising, full curve, poor fit]"
C[C@@H]1COC(Nc2ccc3ncnc(Nc4ccc(OCc5nccs5)c(Cl)c4)c3c2)=N1,Potency,[1],active: 2.64 µM
same,Potency,[3],active: 16.6 µM
same,Potency,[4],"inconclusive: 29.6 µM [cytotoxic, single point]"
same,Potency,[7],"inconclusive: 37.2 µM [cytotoxic, partial curve, poor fit]"
CN(C)CCN(C)C(=O)c1ccc(NC(=O)Nc2ccc(-c3nc(N4CCOCC4)c4ccn(CC(F)(F)F)c4n3)cc2)cc1,Potency,[1],"inconclusive: 0.0148 µM [cytotoxic, full curve]"
same,Potency,[8],active: 0.001 µM
same,Potency,[5],active: 0.0526 µM
Cc1ccc(C(=O)Nc2cccc(C(F)(F)F)c2)cc1-c1ccc2nc(NCCN3CCOCC3)ncc2c1,Potency,[1],active: 5.26 µM
same,Potency,[8],active: 2.96 µM
same,Potency,[4],active: 1.66 µM
same,Potency,[7],active: 1.66 µM
same,Potency,[5],"inconclusive: 26.4 µM [cytotoxic, single point]"
same,Potency,[6],active: 14.8 µM
CC(C=CC=C(C)C=CC1=C(C)CCCC1(C)C)=CC=CC=C(C)C=CC=C(C)C=CC1=C(C)CCCC1(C)C,Potency,[9],"inconclusive: 18.7 µM [cytotoxic, partial curve]"
same,Potency,[2],inactive
same,Potency,[3],"inconclusive: 20.9 µM [cytotoxic, partial curve, poor fit]"
same,Potency,[7],"inconclusive: 1.48 µM [rising, full curve]"
same,Potency,[5],active: 13.2 µM
same,Potency,[6],active: 14.8 µM
COc1ccnc2[nH]cc(C(=O)C(=O)N3CCN(C(=O)c4ccccc4)C[C@@H]3C)c12,Potency,[1],inactive
same,Potency,[8],inactive
same,Potency,[2],inactive
same,Potency,[4],"inconclusive: 0.662 µM [cytotoxic, full curve, poor fit]"
same,Potency,[7],"inconclusive: 20.9 µM [rising, partial curve, poor fit]"
same,Potency,[6],"inconclusive: 3.72 µM [cytotoxic, full curve, poor fit]"
COC(=O)c1ccc2c(C(=Nc3ccc(N(C)C(=O)CN4CCN(C)CC4)cc3)c3ccccc3)c(O)[nH]c2c1,Potency,[9],"inconclusive: 3.32 µM [cytotoxic, full curve, poor fit]"
same,Potency,[8],"inconclusive: 1.87 µM [cytotoxic, partial curve, poor fit]"
same,Potency,[7],active: 0.0526 µM
same,Potency,[6],active: 7.43 µM
CC1(C)O[C@@H]2C[C@@H]3[C@H]4C[C@@H](F)C5=CC(=O)C=C[C@]5(C)[C@@]4(F)[C@@H](O)C[C@]3(C)[C@]2(C(=O)CO)O1,Potency,[8],"inconclusive: 16.6 µM [cytotoxic, partial curve, poor fit]"
same,Potency,[2],inactive
same,Potency,[3],"inconclusive: 20.9 µM [cytotoxic, single point]"
same,Potency,[7],"inconclusive: 0.0019 µM [cytotoxic, full curve, poor fit]"
same,Potency,[5],"inconclusive: 0.0021 µM [cytotoxic, full curve, poor fit]"
same,Potency,[6],active: 0.0105 µM
CN1CCCC(n2nc(Cc3ccc(Cl)cc3)c3ccccc3c2=O)CC1 (centres undefined),Potency,[8],"inconclusive: 0.935 µM [cytotoxic, full curve, poor fit]"
same,Potency,[2],active: 4.18 µM
same,Potency,[3],"inconclusive: 1.05 µM [cytotoxic, full curve, poor fit]"
same,Potency,[4],"inconclusive: 1.87 µM [cytotoxic, full curve, poor fit]"
same,Potency,[7],"inconclusive: 0.0332 µM [cytotoxic, full curve, poor fit]"
CCC[C@H](Nc1nc(-c2ccc(NC(=O)NCC)c(OC)c2)ncc1C)c1cccnc1,viability (% of control),[1],inconclusive: 14.8% [cytotoxic]
same,Potency,[2],"inconclusive: 0.0093 µM [cytotoxic, full curve, poor fit]"
same,viability,[3],inconclusive: 12.6% [cytotoxic]
same,viability (% of DMSO),[4],inconclusive: 10.6% [cytotoxic]
same,Potency,[6],active: 0.0209 µM
CN(Cc1cnc2nc(N)nc(N)c2n1)c1ccc(C(=O)N[C@@H](CCC(=O)O)C(=O)O)cc1,Potency,[9],active: 0.0662 µM
same,Potency,[2],active: 6.62 µM
same,Potency,[3],"inconclusive: 0.0118 µM [cytotoxic, full curve, poor fit]"
same,Potency,[4],"inconclusive: 10.5 µM [cytotoxic, partial curve]"
same,Potency,[7],"inconclusive: 33.2 µM [rising, partial curve]"
same,Potency,[5],"inconclusive: 18.7 µM [cytotoxic, partial curve, poor fit]"
same,Potency,[6],active: 18.7 µM
CC(=CC(=O)Nc1ccccc1C(=O)O)c1ccc2ccccc2c1,Potency,[9],"inconclusive: 18.7 µM [cytotoxic, partial curve]"
same,Potency,[2],"inconclusive: 16.6 µM [cytotoxic, partial curve, poor fit]"
same,Potency,[4],"inconclusive: 23.5 µM [cytotoxic, partial curve, poor fit]"
same,Potency,[7],inactive
same,Potency,[5],"inconclusive: 33.2 µM [cytotoxic, single point]"
same,Potency,[6],"inconclusive: 20.9 µM [cytotoxic, partial curve, poor fit]"
Cc1cc(SCc2sc(-c3ccc(C(F)(F)F)cc3)nc2C)ccc1OCC(=O)O,Potency,[1],"inconclusive: 23.5 µM [cytotoxic, partial curve, poor fit]"
same,Potency,[2],"inconclusive: 11.8 µM [cytotoxic, partial curve, poor fit]"
same,Potency,[3],"inconclusive: 5.9 µM [cytotoxic, partial curve, poor fit]"
same,Potency,[4],"inconclusive: 8.33 µM [cytotoxic, partial curve, poor fit]"
same,Potency,[7],"inconclusive: 37.2 µM [rising, partial curve]"
same,Potency,[5],"inconclusive: 37.2 µM [cytotoxic, single point]"
CC(C)n1cnc2c(NCCc3ccc(O)cc3)nc(-c3csc4ccccc34)nc21,Potency,[8],"inconclusive: 0.0026 µM [rising, full curve, poor fit]"
same,Potency,[2],"inconclusive: 33.2 µM [cytotoxic, single point]"
same,Potency,[3],"inconclusive: 0.0033 µM [rising, full curve, poor fit]"
same,Potency,[7],"inconclusive: 1.48 µM [rising, partial curve, poor fit]"
same,Potency,[5],active: 11.8 µM
same,Potency,[6],"inconclusive: 37.2 µM [cytotoxic, single point]"
COc1ccc(-c2ccc3c(N4CCOCC4)nc(N4C[C@@H](C)O[C@@H](C)C4)nc3n2)cc1CO,Potency,[9],"inconclusive: 1.48 µM [cytotoxic, partial curve]"
same,Potency,[2],active: 0.0833 µM
same,Potency,[4],active: 0.235 µM
same,Potency,[7],active: 0.833 µM
CCOc1cc(N2CCC(O)CC2)ccc1Nc1ncc2c(n1)N(C)c1ccccc1C(=O)N2C,Potency,[9],"inconclusive: 2.96 µM [cytotoxic, full curve]"
same,Potency,[4],"inconclusive: 13.2 µM [cytotoxic, partial curve, poor fit]"
same,Potency,[7],active: 0.526 µM
same,Potency,[6],"inconclusive: 16.6 µM [cytotoxic, partial curve, poor fit]"
CCOc1ccccc1N=Nc1c(C)[nH]n(-c2nc(-c3ccccc3)cs2)c1=O,Potency,[9],"inconclusive: 13.2 µM [cytotoxic, partial curve]"
same,Potency,[4],"inconclusive: 0.187 µM [cytotoxic, full curve, poor fit]"
same,Potency,[7],inactive
CC1(C)[C@H]2CC[C@]3(C)[C@@H](C(=O)C=C4[C@@H]5C[C@@](C)(C(=O)O)CC[C@]5(C)CC[C@]43C)[C@@]2(C)CC[C@@H]1O,Potency,[1],"inconclusive: 14.8 µM [cytotoxic, partial curve, poor fit]"
same,Potency,[2],"inconclusive: 6.62 µM [cytotoxic, partial curve, poor fit]"
same,Potency,[3],inactive
same,Potency,[4],"inconclusive: 0.0066 µM [rising, full curve, poor fit]"
same,Potency,[7],"inconclusive: 1.32 µM [rising, partial curve, poor fit]"
same,Potency,[5],inactive
same,Potency,[6],active: 3.72 µM
N#CCNC(=O)c1ccc(-c2ccnc(Nc3ccc(N4CCOCC4)cc3)n2)cc1,Potency,[1],active: 9.35 µM
same,Potency,[8],"inconclusive: 0.0023 µM [cytotoxic, full curve, poor fit]"
same,Potency,[4],active: 13.2 µM
same,Potency,[7],"inconclusive: 10.5 µM [rising, full curve, poor fit]"
CC(C)CN(C[C@@H](O)[C@H](Cc1ccccc1)NC(=O)O[C@H]1CO[C@H]2OCC[C@H]21)S(=O)(=O)c1ccc(N)cc1,Potency,[1],active: 3.72 µM
same,Potency,[8],"inconclusive: 0.059 µM [cytotoxic, full curve, poor fit]"
same,Potency,[3],inactive
same,Potency,[4],active: 2.96 µM
same,Potency,[7],"inconclusive: 37.2 µM [rising, partial curve]"
same,Potency,[6],active: 20.9 µM

# A section from the list above:
smiles,measurement,setting,value
CN1CCCC(n2nc(Cc3ccc(Cl)cc3)c3ccccc3c2=O)CC1 (centres undefined),Potency,[3],"inconclusive: 1.05 µM [cytotoxic, full curve, poor fit]"
same,Potency,[4],"inconclusive: 1.87 µM [cytotoxic, full curve, poor fit]"
same,Potency,[7],"inconclusive: 0.0332 µM [cytotoxic, full curve, poor fit]"
CCC[C@H](Nc1nc(-c2ccc(NC(=O)NCC)c(OC)c2)ncc1C)c1cccnc1,viability (% of control),[1],inconclusive: 14.8% [cytotoxic]

# Reprinted at random: two records from the list
smiles,measurement,setting,value
CN(Cc1cnc2nc(N)nc(N)c2n1)c1ccc(C(=O)N[C@@H](CCC(=O)O)C(=O)O)cc1,Potency,[9],active: 0.0662 µM
CCOc1cc(N2CCC(O)CC2)ccc1Nc1ncc2c(n1)N(C)c1ccccc1C(=O)N2C,Potency,[7],active: 0.526 µM
